Literature values in US9895730B2, “Method for extraction and surfactant enhanced subsurface contaminant recovery” (priority 2007, dated 2018).
At least one structure is not confirmed: it was looked up by name or label, or the drawing left a doubt.

Conditions: Table 5; cited from earlier work

Compound: ClC(Cl)=C(Cl)Cl [Tetrachloroethene (PCE), Tetrachloroethene]
- log Kow: 3.40
